Binding data for two molecules are collected here from article PMC7157520.

Positions count from the first letter of the chain named. Results are given in words; binding and its absence hold for the method and conditions named. Binding seen in cells or lysates may run through a third protein. A result given as binding can be weak or reduced; the word gives no strength. Where a sequence is shown, tags or fusion partners need not be part of it.

For this assay, the target named is FLAG-PpgA (L. pneumophila strain Philadelphia-1) (UniProt Q5ZTD8). Description: co-IP.

B1: RNA1-Strep (protein, UniProt P11745 1-407)
chain: MATLHFVPQHEEEQVYSISGKALKLTTSDDIKPYLEELAALKTCTKLDLSGNTIGTEASEALAKCIAENTQVRESLVEVNFADLYTSRLVDEVVDSLKFLLPVLLKCPHLEIVNLSDNAFGLRTIELLEDYIAHAVNIKHLILSNNGMGPFAGERIGKALFHLAQNKKAASKPFLETFICGRNRLENGSAVYLALGLKSHSEGLKVVKLYQNGIRPKGVATLIHYGLQYLKNLEILDLQDNTFTKHASLILAKALPTWKDSLFELNLNDCLLKTAGSDEVFKVFTEVKFPNLHVLKFEYNEMAQETIEVSFLPAMEKGNLPELEKLEINGNRLDEDSDALDLLQSKFDDLEVDDFEEVDSEDEEGEDEEDEDEDEKLEEIETERLEKELLEVQVDDLAERLAETEIK
For the molecule B1, the binding entry is given as “binds”.

B2: Strep-tagged RNA1-1 (protein, UniProt P11745 1-407)
chain: B1 chain with S17F, A194V
As to B2, the binding result is “no binding”.
